Experimental data from article PMC8234244, “Virtual Evolution of HVEM Segment for Checkpoint Inhibitor Discovery” (International Journal of Molecular Sciences, 2021).
No constants are given. Whether binding was seen depends on the method and setting. Some entries that bind do so weakly or less than the wild type. Sequences can lack the tags named with a protein.

T1: recombinant BTLA-Fc protein (B and T lymphocyte attenuator) (UniProt Q7Z6A9)
T1 sequence: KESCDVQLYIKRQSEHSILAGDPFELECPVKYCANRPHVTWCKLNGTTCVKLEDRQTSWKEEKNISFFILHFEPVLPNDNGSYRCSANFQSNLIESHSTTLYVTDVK


Target: T1, recombinant BTLA-Fc protein (B and T lymphocyte attenuator)
Experiment: ELISA; competitive ELISA, primary screen: BTLA-Fc coated (350 ng/well), peptide 1 mg/mL in PBS for 12 h at room temperature, washed, then HVEM-biotin 2 h at room temperature, streptavidin-HRP; response as percent of the control; both purified

binding	Binder
binds	KEACGELPGTVCE (N-terminal acetyl (Ac-); C-terminal amide (-NH2)) [SP7 T33P]
binds	KKACGELTGTVCF (N-terminal acetyl (Ac-); C-terminal amide (-NH2)) [DP3 E27K E38F]
binds	KPACGELTGTVCE (N-terminal acetyl (Ac-); C-terminal amide (-NH2)) [SP3 E27P]
binds	KEACGDLTGTVCE (N-terminal acetyl (Ac-); C-terminal amide (-NH2)) [SP6 E31D]
